The target in experiment [1] is N-GCP3/MZT1 module of the X. laevis γ-TuRC (X. laevis (endogenous in egg extract)) (UniProt O73787+Q5U4M5). Kind of experiment: cryo-EM structure; single particle analysis of the native γ-TuRC affinity-purified from X. laevis egg extract; particles with stoichiometric NEDD1/N-GCP3/MZT1 grapnel; AlphaFold2 models flexibly fitted (MDFF) into the density; both purified.

Sequences of proteins named here, by UniProt entry; tags and fusion partners are left off. A change or cut given only in a name is not applied to a line headed by its entry.
UniProt Q9NVX0: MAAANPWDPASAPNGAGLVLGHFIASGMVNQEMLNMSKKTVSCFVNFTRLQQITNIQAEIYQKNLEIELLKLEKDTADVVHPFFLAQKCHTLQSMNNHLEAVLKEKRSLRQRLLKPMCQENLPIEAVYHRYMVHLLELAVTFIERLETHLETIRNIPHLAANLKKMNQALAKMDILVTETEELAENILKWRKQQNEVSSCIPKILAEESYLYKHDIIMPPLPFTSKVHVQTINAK
UniProt Q7Z4H7: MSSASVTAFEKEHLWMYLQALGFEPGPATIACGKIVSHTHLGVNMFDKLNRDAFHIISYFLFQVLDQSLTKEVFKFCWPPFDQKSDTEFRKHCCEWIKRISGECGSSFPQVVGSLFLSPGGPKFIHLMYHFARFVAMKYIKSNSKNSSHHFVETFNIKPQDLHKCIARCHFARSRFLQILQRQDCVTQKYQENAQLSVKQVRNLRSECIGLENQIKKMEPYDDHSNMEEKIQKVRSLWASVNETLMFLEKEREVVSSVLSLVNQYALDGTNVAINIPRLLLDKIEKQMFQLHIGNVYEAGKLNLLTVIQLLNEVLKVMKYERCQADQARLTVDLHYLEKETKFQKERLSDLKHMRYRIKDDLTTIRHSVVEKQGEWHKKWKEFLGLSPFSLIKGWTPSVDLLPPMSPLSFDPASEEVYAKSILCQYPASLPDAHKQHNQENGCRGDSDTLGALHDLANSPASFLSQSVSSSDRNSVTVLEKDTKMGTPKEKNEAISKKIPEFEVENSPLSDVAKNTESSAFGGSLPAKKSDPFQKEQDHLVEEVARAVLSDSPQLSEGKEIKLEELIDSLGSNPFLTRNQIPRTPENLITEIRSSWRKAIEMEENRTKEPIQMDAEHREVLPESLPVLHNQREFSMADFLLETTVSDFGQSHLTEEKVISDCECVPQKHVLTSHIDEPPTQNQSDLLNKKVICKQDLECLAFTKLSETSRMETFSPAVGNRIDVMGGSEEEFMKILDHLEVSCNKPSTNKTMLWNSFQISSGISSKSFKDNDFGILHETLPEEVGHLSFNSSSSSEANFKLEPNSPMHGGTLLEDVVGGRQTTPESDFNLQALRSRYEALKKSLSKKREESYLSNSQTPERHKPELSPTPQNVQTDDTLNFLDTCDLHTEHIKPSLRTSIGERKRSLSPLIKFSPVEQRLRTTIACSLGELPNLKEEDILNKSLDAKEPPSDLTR
UniProt Q99871: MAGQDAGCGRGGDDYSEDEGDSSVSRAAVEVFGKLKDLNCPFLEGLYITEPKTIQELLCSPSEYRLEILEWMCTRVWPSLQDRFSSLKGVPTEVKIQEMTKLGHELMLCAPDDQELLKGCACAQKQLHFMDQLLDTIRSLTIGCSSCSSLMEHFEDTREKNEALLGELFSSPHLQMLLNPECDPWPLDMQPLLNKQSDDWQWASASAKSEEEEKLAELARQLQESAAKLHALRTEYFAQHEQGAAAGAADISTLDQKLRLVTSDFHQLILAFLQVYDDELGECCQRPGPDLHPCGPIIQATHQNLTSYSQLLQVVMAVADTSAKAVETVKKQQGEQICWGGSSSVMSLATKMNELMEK
UniProt Q9BT25: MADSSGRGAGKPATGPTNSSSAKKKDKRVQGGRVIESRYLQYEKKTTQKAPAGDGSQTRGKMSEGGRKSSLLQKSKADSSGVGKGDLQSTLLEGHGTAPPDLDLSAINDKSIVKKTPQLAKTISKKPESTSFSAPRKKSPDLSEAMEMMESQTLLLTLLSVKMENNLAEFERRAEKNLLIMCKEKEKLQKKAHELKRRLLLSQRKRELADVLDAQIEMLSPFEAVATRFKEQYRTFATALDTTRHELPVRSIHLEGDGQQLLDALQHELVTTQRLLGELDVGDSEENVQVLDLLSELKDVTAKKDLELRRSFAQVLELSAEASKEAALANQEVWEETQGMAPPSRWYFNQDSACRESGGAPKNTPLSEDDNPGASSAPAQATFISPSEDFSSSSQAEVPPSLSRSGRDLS
UniProt Q8NA72: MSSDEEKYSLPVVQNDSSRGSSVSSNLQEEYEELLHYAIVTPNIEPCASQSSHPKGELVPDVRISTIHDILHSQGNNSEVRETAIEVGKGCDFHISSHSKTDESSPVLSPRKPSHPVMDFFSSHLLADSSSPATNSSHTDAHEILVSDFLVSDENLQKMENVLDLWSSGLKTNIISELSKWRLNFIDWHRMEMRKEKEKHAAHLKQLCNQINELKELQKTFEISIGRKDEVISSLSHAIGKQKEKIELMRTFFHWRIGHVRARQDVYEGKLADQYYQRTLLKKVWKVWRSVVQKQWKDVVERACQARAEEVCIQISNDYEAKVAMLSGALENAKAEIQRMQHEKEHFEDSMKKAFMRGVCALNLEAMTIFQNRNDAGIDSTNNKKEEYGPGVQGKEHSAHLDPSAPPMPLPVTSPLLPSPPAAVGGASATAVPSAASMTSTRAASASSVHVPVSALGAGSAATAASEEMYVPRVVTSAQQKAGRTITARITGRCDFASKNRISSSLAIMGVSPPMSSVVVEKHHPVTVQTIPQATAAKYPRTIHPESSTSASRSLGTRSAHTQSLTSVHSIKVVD

For experiment [2], the target named is human Augmin TII N-clamp with HAUS8∆[1-138] (human) (UniProt Q9NVX0+Q7Z4H7+Q99871+Q9BT25). Nature of the experiment: pull-down; PD1: SEC-purified POC5/centrin2 complex and AEC-purified EGFP-tagged Augmin N-clamp on GFP-binder beads, 50 mM HEPES pH 7.4, 150 mM NaCl, 0.1% Tween-20, 1 hr on ice, elution with hTEV protease; both purified.

This is an account of results in PMC11903878, “Structural mechanisms for centrosomal recruitment and organization of the microtubule nucleator γ-TuRC” (Nature Communications, 2025).

These are yes or no findings as the source states them, for the method shown. Some binding calls cover weakened binding; strength is not graded here.

In the case of “N-GCP3/MZT1 module of the X. laevis γ-TuRC (from UniProt O73787 1-906; Q5U4M5 1-72) (complex)”, the binding result in experiment [1] was “binds”.

For “human POC5-HA-TEV-2×FLAG/Centrin2 complex (from UniProt Q8NA72 1-575; P41208 1-172)”, the binding result in experiment [2] is reported as “binds”.
